Assay results as given in PubChem BioAssay AID743266 (National Center for Advancing Translational Sciences (NCATS), 2014).
Out of some 410,000 compounds screened, about 310 (0.076%) were called active. This list was built around the results that the source calls inconclusive (neither active nor inactive); the mix of calls is not that of the screen. Calls come from the whole dose curve; as a rule, active = well fitted activation curve with a large enough effect; inconclusive = small, poorly fitted or top-dose-only effect, or another doubt; inactive = no such curve, though single readings can be large or run the other way. A potency beside an inconclusive call is a rough fit, not a confirmed value.

Chains of the proteins cited; added tags and fusions are not shown.
UniProt Q03431, whole entry, looked up: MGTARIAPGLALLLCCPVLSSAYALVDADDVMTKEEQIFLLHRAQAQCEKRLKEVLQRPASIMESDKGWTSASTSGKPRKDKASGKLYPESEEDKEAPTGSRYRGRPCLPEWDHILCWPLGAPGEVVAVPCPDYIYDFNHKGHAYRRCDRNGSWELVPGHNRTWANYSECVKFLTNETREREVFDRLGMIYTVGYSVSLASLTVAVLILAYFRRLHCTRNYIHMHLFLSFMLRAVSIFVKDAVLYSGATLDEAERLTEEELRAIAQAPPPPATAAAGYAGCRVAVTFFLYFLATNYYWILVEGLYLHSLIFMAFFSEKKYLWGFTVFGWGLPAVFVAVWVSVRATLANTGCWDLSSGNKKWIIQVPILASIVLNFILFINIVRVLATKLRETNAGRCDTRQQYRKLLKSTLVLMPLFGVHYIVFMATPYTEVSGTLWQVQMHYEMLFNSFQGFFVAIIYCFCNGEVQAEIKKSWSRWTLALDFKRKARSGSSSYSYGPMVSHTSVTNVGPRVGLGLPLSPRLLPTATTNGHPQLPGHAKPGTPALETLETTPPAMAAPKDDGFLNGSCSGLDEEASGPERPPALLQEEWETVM

Each compound was assayed against Parathyroid hormone/parathyroid hormone-related peptide receptor (Homo sapiens) (UniProt Q03431) (assay: qHTS for PTHR1 Agonists: Primary Screen). Details: HEK293 GP2 PTHR1 cells, GloSensor cAMP luminescence, 1 h; activation: at 115 µM (top of the series) unless noted; series mostly up to 115 µM.
Summary of the method: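 HEK-293-derived GP2 cells expressing PTHR1 and a GloSensor cAMP reporter, 3,000/well, plated overnight, given luciferin plus IBMX (each 0.5 mM as added) for 1 h at 37 °C, then compound for 1 h at 37 °C. Luminescence was read after 15 min at room temperature.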
Note: nearly all actives have a fitted effect of over 55% in size.
Potency is the fitted concentration of half-maximal effect.

Potency, inconclusive:
Cc1cc(NC(=O)CCC2CCCCC2)no1 1.58 µM [activator, full curve, poor fit]
O=C(CN1CCCN(Cc2ccc(F)cc2Cl)C1=O)NC1CCCCCC1 3.55 µM [activator, single point]
CC(C)c1ccc(Nc2c(-c3ccc(N4CCOCC4)cc3)nc3ncccn23)cc1 50.1 µM [activator, partial curve]
O=C(CN1CCCc2ccccc21)Nc1ccc(F)cc1[N+](=O)[O-] 126 µM [activator, single point]
CC(C)(C)c1ccc(C(=O)NC(=O)CSc2n[nH]c(N)n2)cc1 17.8 µM [activator, partial curve]
CCCOc1c(Br)cc(/C=N/O)cc1OC 112 µM [activator, single point]
CC(C)CCn1c(SCC(=O)OCn2nnc3ccccc3c2=O)nc2ccccc2c1=O 63.1 µM [activator, single point]
N#CCCN(C(=O)COC(=O)C12CC3CC(CC(O)(C3)C1)C2)c1ccc(F)cc1 35.5 µM [activator, single point]
O=C(CSc1cccc[n+]1[O-])Nc1c(Br)cc([N+](=O)[O-])cc1Br 50.1 µM [activator, partial curve]
CCOc1ccc(NC(=O)CN(C)C(=O)C2CCN(C(=O)c3ccc(Cl)cc3)CC2)cc1OCC 112 µM [activator, single point]
C#Cc1ccc([C@@H]2C=C(C(=O)NCc3ccccc3)O[C@H](OCCCCO)C2)cc1 158 µM [activator, single point]
COc1ccc(-c2ccnc3nc(N4CCOCC4)nn23)cc1 44.7 µM [activator, single point]
O=c1c2c(n3nnnc3n1-c1ccccc1)-c1ccccc1CC21CCCC1 39.8 µM [activator, single point]
CCCNC(=O)N[C@@H](CCSC)C(=O)OC 79.4 µM [activator, partial curve, poor fit]
COc1cc(OC)cc(OC(=O)c2cccc(S(=O)(=O)N3CCN(C)CC3)c2)c1 15.8 µM [activator, partial curve]
Cc1ccc(CNC(=O)c2c(-c3ccccc3F)noc2C)o1 17.8 µM [activator, partial curve]
CS(=O)(=O)c1ccccc1COC(=O)Nc1ccc(Cl)cc1 10 µM [activator, single point]
CCN(CC)CCn1c(=N)n(CC(O)COc2ccccc2C)c2ccccc21 (centres undefined) 17.8 µM [activator, full curve]
Cc1n[nH]c(C)c1N1C(=O)c2cccc3c(N4CCCCCC4)ccc(c23)C1=O 63.1 µM [activator, single point]
COc1ccc(CCNC(=O)CN2CCC(C(N)=O)CC2)cc1 126 µM [activator, single point]
CC(C)(C)c1cc(C(=O)N2CCc3ccccc32)ccn1 0.708 µM [activator, full curve, poor fit]
CCc1nc(C)cn1S(=O)(=O)c1cc(Br)ccc1OC 2 µM [activator, partial curve, poor fit]
Cc1ccc(-c2nc3c4cnn(-c5cc(Cl)ccc5Cl)c4ncn3n2)cc1 11.2 µM [activator, full curve]
CC(C)Cc1nn2c(=O)cc(COC(=O)c3ccccc3NC(=O)c3ccccc3)nc2s1 89.1 µM [activator, partial curve, poor fit]
Cc1cc(=O)[nH]c(N/N=C/c2c[nH]c3ccccc23)n1 126 µM [activator, single point]
Cc1nn(C)c(C)c1S(=O)(=O)N1CCC(C(=O)NC2CCCCC2)CC1 44.7 µM [activator, single point]
CCOC(=O)c1c(C)oc2nc(C)nc(NCCCN3CCN(c4cccc(C)c4)C(C)C3)c12 (centres undefined) 20 µM [activator, partial curve, poor fit]
C=CCn1c(SCC(=O)NCc2ccc3c(c2)OCO3)nc2scc(-c3ccc(F)cc3)c2c1=O 2.51 µM [activator, partial curve, poor fit]
COc1ccc(N(C(=O)c2snc(C(N)=O)c2N)C(C(=O)NC2CCCC2)c2cccs2)c(OC)c1 (centres undefined) 44.7 µM [activator, partial curve, poor fit]
O=C(O)CCCCCCC1C(=O)NC(=O)N1CCC(O)C1CCCCC1 (centres undefined) 35.5 µM [activator, partial curve, poor fit]
Cc1c(C(c2cc(O)ccc2O)c2c(C)n(C)n(-c3ccccc3)c2=O)c(=O)n(-c2ccccc2)n1C 20 µM [activator, single point]
O=C(NCc1ccccc1)c1ccc(CS(=O)(=O)c2ccccc2)o1 126 µM [activator, partial curve, poor fit]
Cc1ccc(/C=N/NC(=O)Cn2nc(C)c([N+](=O)[O-])c2C)o1 70.8 µM [activator, single point]
CN(CC(=O)Nc1ccccc1Cl)C(=O)CN1C(=O)C2CC=CCC2C1=O (centres undefined) 6.31 µM [activator, full curve, poor fit]
CCOC(=O)c1c(C)oc2nc(C)nc(Nc3cc(C)ccc3OC)c12 141 µM [activator, single point]
Cc1ccc2oc(=O)c3cnn(CC(=O)NC4CCCCC4C)c3c2c1 (centres undefined) 17.8 µM [activator, partial curve]
CCc1oc2ccccc2c1C(=O)CCN1CCCCC1 0.153 µM [activator, full curve, poor fit]
Cc1ccc(NC(=O)COC(=O)c2cc(=O)c3ccccc3o2)cc1F 141 µM [activator, single point]
Cc1ccc(NC2=CC(=O)CC(C)(C)C2)c(N)c1 35.5 µM [activator, partial curve, poor fit]
Cn1cc(CC(=O)NCCCN2CCOCC2)c2ccccc21 44.7 µM [activator, partial curve]

A portion taken from the entries so far, as a working copy:
Potency, inconclusive:
Cc1cc(NC(=O)CCC2CCCCC2)no1 1.58 µM [activator, full curve, poor fit]
O=C(CN1CCCN(Cc2ccc(F)cc2Cl)C1=O)NC1CCCCCC1 3.55 µM [activator, single point]
CC(C)c1ccc(Nc2c(-c3ccc(N4CCOCC4)cc3)nc3ncccn23)cc1 50.1 µM [activator, partial curve]
O=C(CN1CCCc2ccccc21)Nc1ccc(F)cc1[N+](=O)[O-] 126 µM [activator, single point]

Next part.

Potency, inactive:
Oc1ccc(-c2nc3ccccc3s2)cc1
CCc1cccc(CC)c1N(COC)C(=O)Cn1c(C)nc2ccccc21
COc1ccccc1C(=O)N1CCC(N2CCN(c3ccccc3)CC2)CC1
Cc1ccc(OCCCCCCN2CCNCC2)cc1
CCN1c2ccccc2-c2nc3ccccc3n2C1c1ccco1 (centres undefined)
COc1ccccc1NC(=S)NNC(=O)c1ccccc1
OCC1(Cc2cccc(Cl)c2)CCCN(Cc2ccc3cc(F)ccc3n2)C1 (centres undefined)
Cc1ccsc1/C=N/Nc1ccc(C(=O)O)cc1
CCCCn1c(=O)c(-c2ccccc2)c(O)c2ccccc21
COCc1cc(C)nc(N2CCN(Cc3ccccc3)CC2)c1C#N
Cc1cc2ccccn2c1C(=O)c1ccc(Cl)c([N+](=O)[O-])c1
COc1cccc(NC(=O)C(C)C)c1
CCNC(=O)C1(C)CCN(Cc2csc(-c3ccccc3)n2)C1 (centres undefined)
N#CC1(C#N)C(C(N)=O)C1c1ccccc1 (centres undefined)
C=CCOC(=O)N1CCC2CC1c1c(-c3ccc(C(F)(F)F)cc3)cccc12 (centres undefined)
O=C(CSc1ccc(Cl)cc1)c1ccco1
Cc1ccc(C(=O)Nc2ccc(C(F)(F)F)n(C)c2=O)cc1
CCOc1ccc(NS(=O)(=O)c2ccc(C(=O)N(C)Cc3cccc(OC)c3OC)cc2)cc1
Cc1ccc(C(=O)/C=C/Nc2ccccn2)cc1
Clc1ccc(-n2nnnc2-c2cnc(-c3ccncc3)nc2-c2cccs2)cc1
Cn1nccc1C(=O)NC1CCN(Cc2ccccc2)CC1
Nc1nc(N)c(S(=O)(=O)c2ccccc2)c(Nc2ccc(F)cc2)n1
Cc1ccc(Cn2c(C(=O)NCCCN3CCOCC3)cc3sccc32)cc1
Cc1cc(C(=O)OCn2nnc3ccccc3c2=O)c(C)o1
O=C(c1ccccc1CCc1ccccc1)N1CCCC1
COc1ccc(OCC(CO)N2CCN(c3ccccc3)CC2)cc1 (centres undefined)
COc1cc(OC)c2c(C)cc(=O)oc2c1C(CCN1CCOCC1)c1ccc2c(c1)OCO2 (centres undefined)

Ordered by SMILES length (largest number first): some entries from above
Potency, inactive:
Cc1cc2ccccn2c1C(=O)c1ccc(Cl)c([N+](=O)[O-])c1
Cc1ccc(C(=O)Nc2ccc(C(F)(F)F)n(C)c2=O)cc1
Cc1cc(C(=O)OCn2nnc3ccccc3c2=O)c(C)o1

Following part:

activation, inconclusive:
CCc1c(C)c(C#N)c2nc3ccccc3n2c1NCc1ccco1 -57.1% [activator] [at 57.5 µM]
CCC(=O)NNc1ccc(Br)cc1 42.7% [activator]
Cc1cc(=O)[nH]c2nnc(SCCC(C)C)n12 51.3% [activator]
O=C(NN=C1CCCC1)c1ccc(O)cc1O 58.9% [activator]
COc1ccc(-n2c(=O)c3c4c(sc3n(Cc3cc(=O)n5c(C)cccc5n3)c2=O)CCC4)c(OC)c1 -35.2% [activator]
Cc1cccc(CNC(=O)c2ccccc2N)c1 31.3% [activator] [at 57.5 µM]
O=c1c2[nH]cnc2n(-c2cccc(Br)c2)c(=O)n1Cc1ccccc1 56% [activator]
